Results taken from patent US20240100018A1, “COMPOUNDS FOR THE TREATMENT OF A DISEASE OR DISORDER, METHODS FOR IDENTIFYING SAID COMPOUNDS” (priority 2021, published 2024).
“Also recorded” adds a separate entry of the source. For at least one compound, name, drawing or mass did not settle the structure.

System: HEK293T cells transfected with ACE2 and TMPRSS2, SARS-CoV-2 spike-mediated cell fusion
Format: cell-based, human

Compound: CCCCCCc1ccc(O)cc1O [hexylresorcinol, Hexylresorcinol]
- inhibition of syncytia formation (cell fusion): impaired viral entry; also recorded: partial
